Here are results for one molecule from CN107383198A.

The target in one experiment is T1, CysC标准品(众红自制) (human) (UniProt P01034).
T1 sequence (looked up): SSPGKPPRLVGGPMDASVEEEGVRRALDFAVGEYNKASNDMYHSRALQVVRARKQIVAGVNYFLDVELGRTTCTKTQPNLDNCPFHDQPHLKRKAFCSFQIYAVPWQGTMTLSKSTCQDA
In words: colloidal gold sandwich lateral-flow card, C12 as gold-labelled antibody, CysC standard at 7, 1 and 0 mg/L.

For experiment [1], the target named is T2, CysC重组蛋白 (recombinant CysC protein) (human) (UniProt P01034).
T2 sequence (looked up): T1 sequence (looked up)
The experiment is described as follows: colloidal gold sandwich lateral-flow card, C12 gold-labelled, recombinant CysC dilution series.

No constants are given. Whether binding was seen depends on the method and setting. Some entries that bind do so weakly or less than the wild type.

B1: 单链抗体C12 (anti-human cystatin C scFv C12) (scFv)
scFv: QVQLQQPGSELVRPGTSVKLSCRASGYTFTSYWMHWVKQRHGQGLEWLGNVDPGSGTTNYEENFKTKGTLTVDTSSSTVYMHLSSLTSEDSAVYYCTAGFDYWGQGTTLTVSAGGGGSGGGGSGGGGSDIQMNQSPSSLSASLGDTITITCHASQNINVWLGWFQQKPENIPKLLIYKASTLHTGVPSRFSGSGSGTVFTLTISSPQPEDIATYYCQQGQTYPLTFGAGTKLEIK
As for B1, the binding entry (in the experiment with CysC标准品(众红自制) (human); in experiment [1]) was “binds” each time.
